# Results deposited as PubChem BioAssay AID1259254 (NCATS, 2017)
# Aim: 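Finding genes that stop cells copying their DNA twice in one cycle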 (primary screen)
# Cells: human HCT116 colorectal cancer cells
# Reagent: single siRNA against human genes
# Duration: 3 days
# Measured: 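Imaged Hoechst DNA stain sorts each cell into a cycle phase by DNA amount; per plate, G2 fraction set to 0% for non-targeting and 100% for GMNN siRNA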
# Scale: G2 robust z-score and G2 cells, % of GMNN control: higher = more G2 cells, more excess DNA replication
# Active means: 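Active siRNAs have a G2 robust z of 5 or more median absolute deviations over the median, which in these data means about 38% or higher of GMNN control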
# Here is one part, drawn at random, of about 59,000 deposited reagents. Of all reagents, about 1,550 (2.6%) were called active. 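G2 share is only a proxy for re-replication; each gene was hit by three separate siRNAs, and active genes were retested.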 Reagents against one gene are numbered here. Not all columns of the deposit are shown. Not stated in the record: the amount of reagent.
G2 robust z-score,"G2 cells, % of GMNN control",activity call,target,reagent no.
2.67,21.7,inactive,FMC1,1
-0.372,0.35,inactive,FMC1,2
-0.081,2.4,inactive,FMC1,3
-0.029,2.76,inactive,C1orf35,1
1.63,14.5,inactive,C1orf35,2
-0.561,-0.982,inactive,C1orf35,3
-1.07,-4.56,inactive,MATK,1
0.441,6.07,inactive,MATK,2
-0.578,-1.1,inactive,MATK,3
2.19,18.4,inactive,CYP2A7,1
-0.348,0.516,inactive,CYP2A7,2
2.84,23,inactive,CYP2A7,3
-0.942,-3.66,inactive,ANP32A,1
0.0213,3.12,inactive,ANP32A,2
1.09,10.6,inactive,ANP32A,3
-0.902,-3.38,inactive,CCND2,1
-0.283,0.977,inactive,CCND2,2
-0.654,-1.63,inactive,CCND2,3
-0.617,-1.38,inactive,MYOM2,1
0.0312,3.19,inactive,MYOM2,2
-0.482,-0.422,inactive,MYOM2,3
-0.723,-2.12,inactive,RBM43,1
-0.431,-0.0637,inactive,RBM43,2
2.35,19.5,inactive,RBM43,3
-0.29,0.927,inactive,LIN7B,1
7.62,56.6,active,LIN7B,2
-0.381,0.285,inactive,LIN7B,3
-0.962,-3.8,inactive,OR52W1,1
-0.676,-1.79,inactive,OR52W1,2
-0.838,-2.93,inactive,OR52W1,3

2 entries from above, ordered by “G2 cells, % of GMNN control”, ascending.
G2 robust z-score,"G2 cells, % of GMNN control",activity call,target,reagent no.
0.0213,3.12,inactive,ANP32A,2
1.09,10.6,inactive,ANP32A,3
